According to PMC4666396:
No constants are given. Whether binding was seen depends on the method and setting. Binding seen in cells or lysates may run through a third protein. These calls come from enrichment with a bait or labelling near it, and not all partners need be listed.

T1: Splicing factor 1 (SF1) (human (endogenous in HeLa)) (UniProt Q15637)
T1 sequence: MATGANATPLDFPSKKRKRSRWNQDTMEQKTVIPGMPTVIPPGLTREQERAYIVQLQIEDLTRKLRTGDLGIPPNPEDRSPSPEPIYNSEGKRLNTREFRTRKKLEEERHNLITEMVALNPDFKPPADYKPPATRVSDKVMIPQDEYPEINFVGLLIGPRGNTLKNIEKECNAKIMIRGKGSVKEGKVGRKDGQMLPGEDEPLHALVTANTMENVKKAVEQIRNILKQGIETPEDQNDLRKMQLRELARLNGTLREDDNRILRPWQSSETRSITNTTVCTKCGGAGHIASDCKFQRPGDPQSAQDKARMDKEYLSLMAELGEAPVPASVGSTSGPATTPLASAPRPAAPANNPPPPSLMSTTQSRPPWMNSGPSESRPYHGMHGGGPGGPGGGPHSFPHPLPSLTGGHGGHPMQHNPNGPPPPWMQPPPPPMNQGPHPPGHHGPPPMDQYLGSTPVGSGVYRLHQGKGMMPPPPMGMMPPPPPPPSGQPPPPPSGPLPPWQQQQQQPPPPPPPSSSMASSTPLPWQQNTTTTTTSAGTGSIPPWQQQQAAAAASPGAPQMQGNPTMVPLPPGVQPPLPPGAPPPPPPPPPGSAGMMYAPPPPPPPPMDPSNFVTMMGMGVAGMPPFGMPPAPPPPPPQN


Target: T1, Splicing factor 1 (SF1) (human (endogenous in HeLa))
Test: affinity purification with mass spectrometry; anti-SF1 on Protein G Sepharose; HeLa cell nuclear extract without or with 0.3 mg/ml RNase A; IP buffer 50 mM Tris-HCl pH 7.9, 100 mM NaCl, 0.05% NP-40, 0.5 mM DTT, 1 h 4°C; 1D PAGE, LC-MSMS; control mouse IgG

Binder	binding
hPRP6 (protein, UniProt O94906 1-941) MNKKKKPFLGMPAPLGYVPGLGRGATGFTTRSDIGPARDANDPVDDRHAPPGKRTVGDQMKKNQAADDDDEDLNDTNYDEFNGYAGSLFSSGPYEKDDEEADAIYAALDKRMDERRKERREQREKEEIEKYRMERPKIQQQFSDLKRKLAEVTEEEWLSIPEVGDARNKRQRNPRYEKLTPVPDSFFAKHLQTGENHTSVDPRQTQFGGLNTPYPGGLNTPYPGGMTPGLMTPGTGELDMRKIGQARNTLMDMRLSQVSDSVSGQTVVDPKGYLTDLNSMIPTHGGDINDIKKARLLLKSVRETNPHHPPAWIASARLEEVTGKLQVARNLIMKGTEMCPKSEDVWLEAARLQPGDTAKAVVAQAVRHLPQSVRIYIRAAELETDIRAKKRVLRKALEHVPNSVRLWKAAVELEEPEDARIMLSRAVECCPTSVELWLALARLETYENARKVLNKARENIPTDRHIWITAAKLEEANGNTQMVEKIIDRAITSLRANGVEINREQWIQDAEECDRAGSVATCQAVMRAVIGIGIEEEDRKHTWMEDADSCVAHNALECARAIYAYALQVFPSKKSVWLRAAYFEKNHGTRESLEALLQRAVAHCPKAEVLWLMGAKSKWLAGDVPAARSILALAFQANPNSEEIWLAAVKLESENDEYERARRLLAKARSSAPTARVFMKSVKLEWVQDNIRAAQDLCEEALRHYEDFPKLWMMKGQIEEQKEMMEKAREAYNQGLKKCPHSTPLWLLLSRLEEKIGQLTRARAILEKSRLKNPKNPGLWLESVRLEYRAGLKNIANTLMAKALQECPNSGILWSEAIFLEARPQRRTKSVDALKKCEHDPHVLLAVAKLFWSQRKITKAREWFHRTVKIDSDLGDAWAFFYKFELQHGTEEQQEEVRKRCESAEPRHGELWCAVSKDIANWQKKIGDILRLVAGRIKNTF	binds
hSNU66 (protein, UniProt O43290 1-800) MGSSKKHRGEKEAAGTTAAAGTGGATEQPPRHREHKKHKHRSGGSGGSGGERRKRSRERGGERGSGRRGAEAEARSSTHGRERSQAEPSERRVKREKRDDGYEAAASSKTSSGDASSLSIEETNKLRAKLGLKPLEVNAIKKEAGTKEEPVTADVINPMALRQREELREKLAAAKEKRLLNQKLGKIKTLGEDDPWLDDTAAWIERSRQLQKEKDLAEKRAKLLEEMDQEFGVSTLVEEEFGQRRQDLYSARDLQGLTVEHAIDSFREGETMILTLKDKGVLQEEEDVLVNVNLVDKERAEKNVELRKKKPDYLPYAEDESVDDLAQQKPRSILSKYDEELEGERPHSFRLEQGGTADGLRERELEEIRAKLRLQAQSLSTVGPRLASEYLTPEEMVTFKKTKRRVKKIRKKEKEVVVRADDLLPLGDQTQDGDFGSRLRGRGRRRVSEVEEEKEPVPQPLPSDDTRVENMDISDEEEGGAPPPGSPQVLEEDEAELELQKQLEKGRRLRQLQQLQQLRDSGEKVVEIVKKLESRQRGWEEDEDPERKGAIVFNATSEFCRTLGEIPTYGLAGNREEQEELMDFERDEERSANGGSESDGEENIGWSTVNLDEEKQQQDFSASSTTILDEEPIVNRGLAAALLLCQNKGLLETTVQKVARVKAPNKSLPSAVYCIEDKMAIDDKYSRREEYRGFTQDFKEKDGYKPDVKIEYVDETGRKLTPKEAFRQLSHRFHGKGSGKMKTERRMKKLDEEALLKKMSSSDTPLGTVALLQEKQKAQKTPYIVLSGSGKSMNANTITK	binds
